{"source": "PubChem BioAssay AID1259254 (NCATS, 2017)", "screen": "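Finding genes that stop cells copying their DNA twice in one cycle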 (primary screen)", "cell system": "human HCT116 colorectal cancer cells", "reagents": "single siRNA against human genes", "time to read-out": "3 days", "measured": "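Imaged Hoechst DNA stain sorts each cell into a cycle phase by DNA amount; per plate, G2 fraction set to 0% for non-targeting and 100% for GMNN siRNA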", "reading the numbers": "G2 robust z-score: higher = more G2 cells, more excess DNA replication", "rule for the call": "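An siRNA counts as active if its G2 robust z-score lies at least 5 MADs above the screen median; here such calls match roughly 38% of GMNN control or more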", "note": "In all, the deposit lists about 59,000 reagents; shown is an unselected part. About 1,550 of them (2.6%) count as active. 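G2 share is only a proxy for re-replication; each gene was hit by three separate siRNAs, and active genes were retested.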 Unmarked entries are inactive. The numbers tell different reagents against one gene apart. Further read-outs or replicates are left out here. Not stated in the record: the amount of reagent."}
{"Gene": "B3GNT4", "siRNA no.": 1, "G2 robust z-score": -0.488}
{"Gene": "B3GNT4", "siRNA no.": 2, "G2 robust z-score": 1.03}
{"Gene": "B3GNT4", "siRNA no.": 3, "G2 robust z-score": 2.97}
{"Gene": "TLNRD1", "siRNA no.": 1, "G2 robust z-score": -0.467}
{"Gene": "TLNRD1", "siRNA no.": 2, "G2 robust z-score": -0.721}
{"Gene": "TLNRD1", "siRNA no.": 3, "G2 robust z-score": 1.87}
{"Gene": "SHD", "siRNA no.": 1, "G2 robust z-score": -0.994}
{"Gene": "SHD", "siRNA no.": 2, "G2 robust z-score": 0.642}
{"Gene": "SHD", "siRNA no.": 3, "G2 robust z-score": 1.84}
{"Gene": "ATXN2L", "siRNA no.": 1, "G2 robust z-score": -0.577}
{"Gene": "ATXN2L", "siRNA no.": 2, "G2 robust z-score": 3.12}
{"Gene": "ATXN2L", "siRNA no.": 3, "G2 robust z-score": -0.0471}
